Experimental data published in PMC5592244.
These are yes or no findings as the source states them, for the method shown. In cells and extracts the contact can be indirect. Here binding means that the protein was enriched with, or labelled near, the bait; the list need not be complete.

Molecular target: FLAG-UBR5-CS (catalytically dead UBR5, C2768S) (human) (UniProt O95071)
Assay: affinity purification with mass spectrometry; FLAG-tagged UBR5 baits in LiCl-stimulated HEK293T cells; lysis buffer 20 mM Tris-HCl pH 7.4, 100 mM NaCl, 10% glycerol, 0.2% Triton X-100; Flag affinity gel 2 hr at 4°C; eluted with 3xFlag-Peptide; LC-MS/MS

- binding: binds
B1: ATXN2L (endogenous, HEK293T) (protein, UniProt Q8WWM7 1-1075)
chain: MLKPQPLQQPSQPQQPPPTQQAVARRPPGGTSPPNGGLPGPLATSAAPPGPPAAASPCLGPVAAAGSGLRRGAEGILAPQPPPPQQHQERPGAAAIGSARGQSTGKGPPQSPVFEGVYNNSRMLHFLTAVVGSTCDVKVKNGTTYEGIFKTLSSKFELAVDAVHRKASEPAGGPRREDIVDTMVFKPSDVMLVHFRNVDFNYATKDKFTDSAIAMNSKVNGEHKEKVLQRWEGGDSNSDDYDLESDMSNGWDPNEMFKFNEENYGVKTTYDSSLSSYTVPLEKDNSEEFRQRELRAAQLAREIESSPQYRLRIAMENDDGRTEEEKHSAVQRQGSGRESPSLASREGKYIPLPQRVREGPRGGVRCSSSRGGRPGLSSLPPRGPHHLDNSSPGPGSEARGINGGPSRMSPKAQRPLRGAKTLSSPSNRPSGETSVPPPPAVGRMYPPRSPKSAAPAPISASCPEPPIGSAVPTSSASIPVTSSVSDPGVGSISPASPKISLAPTDVKELSTKEPGRTLEPQELARIAGKVPGLQNEQKRFQLEELRKFGAQFKLQPSSSPENSLDPFPPRILKEEPKGKEKEVDGLLTSEPMGSPVSSKTESVSDKEDKPPLAPSGGTEGPEQPPPPCPSQTGSPPVGLIKGEDKDEGPVAEQVKKSTLNPNAKEFNPTKPLLSVNKSTSTPTSPGPRTHSTPSIPVLTAGQSGLYSPQYISYIPQIHMGPAVQAPQMYPYPVSNSVPGQQGKYRGAKGSLPPQRSDQHQPASAPPMMQAAAAAGPPLVAATPYSSYIPYNPQQFPGQPAMMQPMAHYPSQPVFAPMLQSNPRMLTSGSHPQAIVSSSTPQYPSAEQPTPQALYATVHQSYPHHATQLHAHQPQPATTPTGSQPQSQHAAPSPVQHQAGQAPHLGSGQPQQNLYHPGALTGTPPSLPPGPSAQSPQSSFPQPAAVYAIHHQQLPHGFTNMAHVTQAHVQTGITAAPPPHPGAPHPPQVMLLHPPQSHGGPPQGAVPQSGVPALSASTPSPYPYIGHPQGEQPGQAPGFPGGADDRIREFSLAGGIWHGRAEGLQVGQDARVLGGE
